Results published in publication PMC10785435.
No constants are given. Whether binding was seen depends on the method and setting. Some binding calls cover weakened binding; strength is not graded here. Sequences can lack the tags named with a protein.

T1: His-recombinant human ESM1 (human) (UniProt Q9NQ30)
T1 sequence: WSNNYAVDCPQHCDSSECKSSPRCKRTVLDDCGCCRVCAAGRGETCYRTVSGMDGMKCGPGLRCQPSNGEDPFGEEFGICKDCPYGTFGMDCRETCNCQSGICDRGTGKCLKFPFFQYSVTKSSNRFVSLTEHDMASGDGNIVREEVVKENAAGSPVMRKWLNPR

T2: GST-tagged ANGPTL4 protein (UniProt Q9BY76)
T2 sequence: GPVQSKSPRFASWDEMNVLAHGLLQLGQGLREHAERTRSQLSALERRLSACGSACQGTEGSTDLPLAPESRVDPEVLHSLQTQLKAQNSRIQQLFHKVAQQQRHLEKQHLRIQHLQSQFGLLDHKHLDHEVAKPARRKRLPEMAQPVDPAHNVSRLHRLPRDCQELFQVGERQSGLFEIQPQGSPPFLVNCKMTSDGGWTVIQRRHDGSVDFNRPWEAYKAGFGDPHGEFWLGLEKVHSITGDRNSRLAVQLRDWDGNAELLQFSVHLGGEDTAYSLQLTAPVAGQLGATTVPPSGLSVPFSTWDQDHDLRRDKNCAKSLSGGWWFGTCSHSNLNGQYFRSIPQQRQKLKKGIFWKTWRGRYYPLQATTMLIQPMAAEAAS


Assays:
[1] = target: T1, His-recombinant human ESM1 (human); experiment: pull-down; reciprocal pull-downs of His-rhESM1 and GST-ANGPTL4; Ni Sepharose High-Performance resin, 4 °C overnight, washing, SDS-PAGE and detection with antibody; glutathione-Sepharose 4B beads for GST-ANGPTL4; both purified
[2] = target: T2, GST-tagged ANGPTL4 protein; experiment: as above

binding [1] | binding [2] | Binder
binds |  | GST-tagged ANGPTL4 protein (protein, UniProt Q9BY76 26-406) GPVQSKSPRFASWDEMNVLAHGLLQLGQGLREHAERTRSQLSALERRLSACGSACQGTEGSTDLPLAPESRVDPEVLHSLQTQLKAQNSRIQQLFHKVAQQQRHLEKQHLRIQHLQSQFGLLDHKHLDHEVAKPARRKRLPEMAQPVDPAHNVSRLHRLPRDCQELFQVGERQSGLFEIQPQGSPPFLVNCKMTSDGGWTVIQRRHDGSVDFNRPWEAYKAGFGDPHGEFWLGLEKVHSITGDRNSRLAVQLRDWDGNAELLQFSVHLGGEDTAYSLQLTAPVAGQLGATTVPPSGLSVPFSTWDQDHDLRRDKNCAKSLSGGWWFGTCSHSNLNGQYFRSIPQQRQKLKKGIFWKTWRGRYYPLQATTMLIQPMAAEAAS
 | binds | His-recombinant human ESM1 (protein, UniProt Q9NQ30 20-184) WSNNYAVDCPQHCDSSECKSSPRCKRTVLDDCGCCRVCAAGRGETCYRTVSGMDGMKCGPGLRCQPSNGEDPFGEEFGICKDCPYGTFGMDCRETCNCQSGICDRGTGKCLKFPFFQYSVTKSSNRFVSLTEHDMASGDGNIVREEVVKENAAGSPVMRKWLNPR
